In PubChem BioAssay AID1439 (NMMLSC, 2008):
In all, about 220,000 compounds went through this assay and about 770 (0.35%) were called active. The inconclusive results got no clear call from the source; some entries with a clear call stand among them for comparison. Cut-off read from the data, not from the text of the source: active = binding response below about 49% or above about 150%; inconclusive = no clear call, values can overlap the other calls; inactive = in between.

The chains behind the UniProt entries cited, without tags or fusion partners.
UniProt P09471, whole entry, looked up: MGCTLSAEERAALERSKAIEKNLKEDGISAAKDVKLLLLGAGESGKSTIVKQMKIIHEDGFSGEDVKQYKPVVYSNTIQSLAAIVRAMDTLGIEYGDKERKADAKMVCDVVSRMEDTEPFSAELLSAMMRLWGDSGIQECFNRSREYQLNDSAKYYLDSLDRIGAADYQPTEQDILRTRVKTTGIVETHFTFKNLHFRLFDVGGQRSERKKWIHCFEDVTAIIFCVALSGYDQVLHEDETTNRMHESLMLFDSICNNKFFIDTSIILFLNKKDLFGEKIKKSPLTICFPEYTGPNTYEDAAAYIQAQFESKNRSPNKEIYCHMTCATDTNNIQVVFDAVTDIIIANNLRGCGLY

Target: Guanine nucleotide-binding protein G(o) subunit alpha (Homo sapiens) (UniProt P09471)
Assay: RGS7-Galphao binding modulators, primary screen, biochemical, multiplexed bead flow cytometry (AID 1439);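 note: fluorescent Galphao held in activated GDP-AlF4 state binding bead-coupled RGS7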
Settings: at 10 µM, actives lie on both sides

| SMILES | binding response (% of control) |
| --- | --- |
| O=C(Nc1ccc(NC(=O)c2ccccc2O)cc1)Nc1ccc(F)cc1F | inconclusive: 94.1% |
| Cc1cc(-c2c(C(=O)N3CCOCC3)c(C)nn2-c2ccccc2)no1 | inconclusive: 134% |
| CSc1cccc(NC(=S)NCCCN2CCN(c3ccc(F)cc3)CC2)c1 | inconclusive: 98.5% |
| COc1ccc(NCC(=O)n2c(C)c(C)c3ccccc32)cc1OC | inconclusive: -583% |
| CCOC(=O)CC(=O)Nc1ccsc1C(N)=O | inconclusive: 90.3% |
| Cc1ccc(C(=O)C2CCOC(C)(C)C2)cc1 (stereo not given) | inactive: 99.5% |
| O=C(O)CCC(=O)c1ccc2ccc3cccc4ccc1c2c34 | inconclusive: 99.1% |
| O=C(O)[C@H](Cc1ccccc1)NC(=O)N1CCC(Cc2ccccc2)CC1 | inconclusive: 102% |
| Cc1c([N+](=O)[O-])cc(C(=O)Oc2cccc(C(=S)N3CCOCC3)c2)cc1[N+](=O)[O-] | inactive: 94.4% |
| CN(C)c1cc(-c2ccc(Cl)cc2)oc(=O)c1Cl | inconclusive: -11% |
| O=S(=O)(c1ccc(F)cc1)N1CCN(c2ncccn2)CC1 | inconclusive: 104% |
| Cc1cc(Nc2cccc([N+](=O)[O-])c2)c2cccc(C)c2n1 | inconclusive: 101% |
| O=C(CCS(=O)(=O)c1ccccc1Cl)NCc1ccc(F)cc1 | inconclusive: 57.4% |
| Cc1ccc2c(c1)c1c(n2CC(O)CN2CCCCC2C)CCCC1 (stereo not given) | inconclusive: 96% |
| C/C(=N\O)C(C)(C)Nc1ccc(Cl)cc1 | inconclusive: 89.4% |
| Nc1ccc(C(=O)Nc2ccc(Nc3ccncc3)cc2)cc1 | inconclusive: 97.2% |
| O=C(O)c1ccc2c(c1)C(=O)N(N1C(=O)c3ccccc3C1=O)C2=O | inactive: 106% |
| COc1ccccc1OCCNC(=O)C1CCCCC1 | inconclusive: 125% |
| CCOC(=O)c1c(NC(=S)Nc2cccnc2)sc(C)c1C | inconclusive: 102% |
| CCOC(=O)N1CCC(NC(=O)CSc2cc(=O)n(C)c3ccccc23)CC1 | inactive: 111% |
| COc1ccc2cc(C(=O)C3CCCN(C(=O)/C=C/c4ccccn4)C3)ccc2c1 (stereo not given) | inactive: 104% |
| O=[N+]([O-])c1c(N2CCN(CCO)CC2)nc2ccccn12 | inconclusive: 168% |
| c1ccc(-n2ncc3cccnc32)cc1 | inconclusive: 83.2% |
| COCC(C)n1c(COc2ccccc2F)nnc1SCC(=O)c1c(N)n(C)c(=O)n(C)c1=O (stereo not given) | inconclusive: 112% |

| SMILES | binding response (% of control) |
| --- | --- |
| O=c1cc(CCl)nc2scc(-c3ccccc3)n12 | inconclusive: 191% |
| CCCCNCc1cc2ccccc2o1 | inconclusive: 74.9% |
| Cc1cccc(-n2ncc3c(N4CCOCC4)ncnc32)c1 | inactive: 62.9% |
| COc1ccc(NC(=O)Nc2ccccc2F)c([N+](=O)[O-])c1 | inconclusive: 120% |
| CCOC(=O)COc1c(Br)cc(/C=C2\SC(=O)N(CC(=O)N3CCCC3)C2=O)cc1OC | inactive: 122% |
| O=S(=O)([O-])C/C(=C\c1ccc(Cl)cc1)c1cc[n+](CCO)cc1 | inconclusive: 117% |
| COc1ccc(/C=C/C(=O)OCC(=O)c2ccc3c(c2)NC(=O)CO3)c(OC)c1 | inconclusive: 59.6% |
| CC(C)CN1CCC(CN(C)Cc2nc(-c3cnccn3)no2)CC1 | inactive: 107% |
| C=CS(=O)c1sc(Cl)c(N2CCOCC2)c1[N+](=O)[O-] (stereo not given) | inconclusive: 46.5% |
| O=C(c1ccc(Cn2cc(Cl)c([N+](=O)[O-])n2)cc1)N1CCN(Cc2ccccc2)CC1 | inconclusive: 95.4% |
| O=C(SCC(O)C(O)CS)c1cccs1 (stereo not given) | inconclusive: 155% |
| COC(=O)c1nnn(-c2ccsc2C(=O)OC)c1C(=O)OC | inconclusive: 103% |
| c1ccc(Cn2cnc3ccccc32)cc1 | active: 33.9% |
| COc1ccc(/C=C\C(=O)NCc2ccc3c(c2)cc(C)n3C)cc1OC | inactive: 79.3% |
| COc1ccc(Nc2nc(C(=O)N3CCc4cc(OC)c(OC)cc4C3)cs2)cc1 | inconclusive: 98.7% |
| COC(=O)c1cnn(-c2ccc(F)cc2F)c1/C=N/NC(=S)NC(C)(C)C | inconclusive: 111% |
| Cc1c(C(=O)Nc2ccccc2C(=O)N2CCCC2)cccc1[N+](=O)[O-] | inconclusive: 112% |
| Clc1ccc(-n2nnnc2-c2cnc3ccccc3c2-c2ccccc2)cc1 | inconclusive: -248% |
| CC(C)(C)C(=O)OCc1nc(-c2ccc(C(F)(F)F)cc2)cs1 | inconclusive: 217% |
| Cc1sc(-c2ccncc2)nc1OC(=O)c1ccc(F)cc1F | inconclusive: 109% |
| O=c1c2ccccc2sn1-c1cc(S(=O)(=O)N2CCOCC2)ccc1N1CCCC1 | inactive: 100% |
| O=C(CSc1ncccn1)Nc1ncc(C(F)(F)F)cc1Cl | inactive: 94.1% |
| CCC(C)[C@H](NC(=O)NCc1ccco1)C(=O)OC (stereo not given in full) | inconclusive: 190% |
| CC(=O)Nc1ccc(N2C(=O)CSC2c2ccccc2[N+](=O)[O-])cc1 (stereo not given) | inactive: 99.8% |

| SMILES | binding response (% of control) |
| --- | --- |
| CCc1cc(=O)oc2cc(C)cc(OCC(C)=O)c12 | inconclusive: 115% |
| O=C(Nc1ccc([N+](=O)[O-])cc1Br)c1cc2ccccc2nc1Cl | inconclusive: 68.3% |
| CC1(C(=O)OCC(=O)Nc2ccc(C(N)=O)cc2)CC1(Cl)Cl (stereo not given) | inconclusive: 92.3% |
| Cn1nc(C(F)(F)F)c(-c2ccc(Br)cc2)c1NC(=O)C1CCC1C(=O)O (stereo not given) | inconclusive: 113% |
| CCN(CC)CCCN=Cc1c(O)n(-c2ccc(C)cc2)c(=O)c2ccccc12 | inconclusive: 92.9% |
| O=C(NCc1ccccn1)C(=O)N/N=C/c1ccc2c(c1)OCO2 | inactive: 96% |
| COc1ccccc1OCCNC(=O)C(=O)c1c[nH]c2ccccc12 | inconclusive: 107% |
| CC(C)(C)NC(=O)C1Cc2ccccc2CN1 (stereo not given) | inactive: 102% |
| Cn1c(NNC(=O)c2c(F)cccc2F)cc(=O)n(C)c1=O | inconclusive: 239% |
| Cc1csc(C(=O)NN)c1N(C)C | inconclusive: 78.2% |
| O=c1c(Cl)c(Cl)cnn1Cc1nnc(-c2ccccc2Br)o1 | inactive: 103% |
| CCOC(=O)/C(=N\Nc1ccccc1Cl)N1CCN(c2ccccc2OC)CC1 | inactive: 106% |
| COC(=O)C1C(O)=C(C(C)=Nc2cccc3ccccc23)C(=O)CC1(C)C (stereo not given) | inconclusive: 79.2% |
| O=C(O)Cc1sc(Nc2ccccc2)nc1-c1cccs1 | inconclusive: 116% |
| CCOC(=O)/C=C1\SCC(=O)N1CC(=O)Nc1ccc(C(C)C)cc1 | inactive: 110% |
| C/C(=N/NC(=O)CNC(=O)c1cccnc1)c1cccc([N+](=O)[O-])c1 | inactive: 98.3% |
| COc1ccc(-c2nn(-c3ccccc3)cc2/C=C/C(=O)N2CCOCC2)cc1OC | inconclusive: 95.7% |
| Cc1ccccc1N1CCN(Cc2nc(Cc3ccccc3)no2)CC1 | inconclusive: 107% |
| CN(C)C=Nc1nonc1-c1ccc(Cl)cc1 | inconclusive: 44.6% |
| CCCCOCCCNC1=NCCCCC1 | inactive: 89.8% |
| COCCNc1nc(-c2cc(-c3ccc(Cl)cc3)on2)cc(C(C)C)n1 | inconclusive: 97.4% |
| COCCNC(=O)/C(C#N)=C/c1cccs1 | inconclusive: 1.94% |
| Cc1c(C(=O)N2CCCc3ccccc32)sc2nc(-c3ccccc3)cn12 | inconclusive: 107% |
| CN1C(C(=O)NCc2ccccc2)CC2Cn3c(nc4ccccc43)C21 (stereo not given) | inconclusive: 115% |

| SMILES | binding response (% of control) |
| --- | --- |
| CCN(CC)c1ccc(C(=O)OCc2c(C)noc2C)cc1 | inactive: 108% |
| COC(=O)Cc1ccc(NC(=S)NNC(=O)c2ccccc2Br)cc1 | inactive: 103% |
| O=C(c1ccccc1F)N1CCN(c2ccc([N+](=O)[O-])c(NCC3CCCO3)c2)CC1 (stereo not given) | inactive: 98.3% |
| Cc1ccc(-n2cccc2/C=C2/C(=N)N3C(=NC2=O)SN=C3S(C)(=O)=O)cc1 | inactive: 83.8% |
| CCC(C)NC(=O)CC(C)C (stereo not given) | inconclusive: 103% |
| COc1ccccc1C(=O)Nc1ccc(S(=O)(=O)Nc2onc(C)c2C)cc1 | inconclusive: 111% |
| COc1ccc(C(=O)OC(C)CN2CCOCC2)cc1OC (stereo not given) | inactive: 102% |
| CCc1ccc(NC(=O)C(=O)NCC(O)c2ccccc2)cc1 (stereo not given) | inconclusive: 114% |
| Cc1cccc2c1NC1(CCCC1)CC2C (stereo not given) | inconclusive: 116% |
| CCOc1ccccc1C(=O)Nc1cc(C(=O)NCC(C)C)ccc1Cl | inactive: 103% |
| CC1CCN(Cc2cc(=O)oc3ccc4ccccc4c23)CC1 | inconclusive: 97.7% |
| O=C1OCC(c2ccccc2)=C1c1ccccc1[N+](=O)[O-] | inconclusive: 114% |
| Cc1onc(C(=O)NCc2ccccn2)c1[N+](=O)[O-] | inactive: 107% |
| CC(=O)c1ccccc1OC(=O)c1c(F)cccc1F | inconclusive: 92.8% |
| O=C(Oc1cc(=O)oc2c1c(=O)n1c3c(cccc23)CC1)c1ccc(F)cc1 | inconclusive: 170% |
| CNC(=S)N1CCN(c2ccc(Cl)c(Cl)c2)CC1 | inactive: 93.3% |
| Nc1ncc([N+](=O)[O-])c(Oc2ccccc2F)n1 | inconclusive: 255% |
| CC(/C=C1\NC(=S)NC1=O)=C\c1ccccc1 | inconclusive: 4% |
| C/C(=N\NC(=O)c1cc(C(C)C)[nH]n1)c1ccco1 | inactive: 106% |
| COc1ccc(/C=N/NC(=O)c2ccc(COc3cccc4cccnc34)cc2)cc1OC | inconclusive: 82.3% |
| CN1CCN(CC#CCC(O)(c2ccccc2)c2ccccc2)CC1 | inconclusive: 107% |
| CC1=C(C(=O)OC(C)(C)C)C(c2cccs2)NC(=O)N1 (stereo not given) | inactive: 94.8% |
| CC1=NN(C(N)=S)C(C)(C)C1 | inconclusive: 122% |

Some of the entries so far, tab-delimited.
SMILES	binding response (% of control)
CN1C(C(=O)NCc2ccccc2)CC2Cn3c(nc4ccccc43)C21 (stereo not given)	inconclusive: 115%
CCN(CC)c1ccc(C(=O)OCc2c(C)noc2C)cc1	inactive: 108%
COC(=O)Cc1ccc(NC(=S)NNC(=O)c2ccccc2Br)cc1	inactive: 103%
O=C(c1ccccc1F)N1CCN(c2ccc([N+](=O)[O-])c(NCC3CCCO3)c2)CC1 (stereo not given)	inactive: 98.3%
Cc1ccc(-n2cccc2/C=C2/C(=N)N3C(=NC2=O)SN=C3S(C)(=O)=O)cc1	inactive: 83.8%
CCC(C)NC(=O)CC(C)C (stereo not given)	inconclusive: 103%

Fetched by compound from the entries so far (2):

| SMILES | binding response (% of control) |
| --- | --- |
| CCc1ccc(NC(=O)C(=O)NCC(O)c2ccccc2)cc1 (stereo not given) | inconclusive: 114% |
| CC(/C=C1\NC(=S)NC1=O)=C\c1ccccc1 | inconclusive: 4% |
